{"source": "paper PMC4678829", "binders": {"B1": {"name": "Staphylococcus aureus thioredoxin (Trx), wild type (enzyme, UniProt P0A0K6 1-104)", "chain": "MAIVKVTDADFDSKVESGVQLVDFWATWCGPCKMIAPVLEELAADYEGKADILKLDVDENPSTAAKYEVMSIPTLIVFKDGQPVDKVVGFQPKENLAEVLDKHL"}}, "target": "Staphylococcus aureus thioredoxin (Trx), wild type (Staphylococcus aureus) (UniProt P0A0K6)", "assay": "SEC; both purified", "note": "These are yes or no findings as the source states them, for the method shown."}
{"binder": "B1", "values": [{"measurement": "binding", "value": "no binding"}]}
